{
  "source": "paper PMC6517398",
  "key": {"[1]": {"target": "OFA/iLRP (immature laminin receptor protein) on cells (UniProt P08865)", "assay": "flow cytometry and confocal microscopy of cells", "conditions": "PBS (pH not stated), 200 uL, 30 min, room temperature, 2x10^5 coated beads with 20-40 pmol FAM-ssDNA (cells: 40-60 pmol), washed once or twice with PBS, protein on the cell surface, single-stranded DNA"}, "[2]": {"system": "trypsin", "assay": "flow cytometry of coated beads", "conditions": "binding very weak; PBS (pH not stated), 200 uL, 30 min, room temperature; 2x10^5 coated beads with 20-40 pmol FAM-ssDNA (cells: 40-60 pmol); washed once or twice with PBS; commercial protein; single-stranded DNA"}, "[3]": {"target": "bovine serum albumin (BSA) (bovine) (UniProt P02769)", "assay": "flow cytometry of coated beads", "conditions": "binding very weak; PBS (pH not stated), 200 uL, 30 min, room temperature; 2x10^5 coated beads with 20-40 pmol FAM-ssDNA (cells: 40-60 pmol); washed once or twice with PBS; commercial protein; single-stranded DNA"}, "[4]": {"target": "T1, ovalbumin (OVA) (UniProt P01012)", "T1 sequence (looked up, limits assumed)": "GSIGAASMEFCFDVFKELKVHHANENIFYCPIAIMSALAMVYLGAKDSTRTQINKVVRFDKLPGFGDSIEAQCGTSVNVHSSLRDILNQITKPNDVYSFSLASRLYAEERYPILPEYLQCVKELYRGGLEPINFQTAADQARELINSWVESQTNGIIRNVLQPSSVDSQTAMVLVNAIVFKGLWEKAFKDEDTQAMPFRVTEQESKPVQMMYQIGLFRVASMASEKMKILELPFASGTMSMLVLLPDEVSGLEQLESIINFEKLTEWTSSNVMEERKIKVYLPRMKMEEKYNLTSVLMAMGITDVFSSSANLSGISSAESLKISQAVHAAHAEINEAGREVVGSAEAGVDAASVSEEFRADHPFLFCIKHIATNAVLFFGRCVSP", "assay": "flow cytometry of coated beads", "conditions": "binding very weak; PBS (pH not stated), 200 uL, 30 min, room temperature; 2x10^5 coated beads with 20-40 pmol FAM-ssDNA (cells: 40-60 pmol); washed once or twice with PBS; commercial protein; single-stranded DNA"}},
  "note": "For part of these data: The comparison behind a weaker result is the experiment's own reference, which may not be listed here. For part of these data: Protein sequences can lack the tags named with them. For part of these data: Construct, isoform or probe ends are uncertain for at least one entry. For part of these data: Results from cells or extracts need not show a direct contact. For part of these data: At least one verdict was read from the data and is not stated in words by the source.",
  "data": [
    {"sequence": "TGCGTGTGTAGTGTGTCTGTTGTTTGTATTGTTGTCTATCCTCTTAGGGATTTGGGCGG [AB3]", "values": [
      {"measurement": "binding result", "setting": "[1]; HL-60 cells, binding nearly abolished after trypsin or proteinase K, OFA/iLRP-negative PBMC bound weakly", "result": "binds"},
      {"measurement": "binding result", "setting": "[1]; Jurkat cells", "result": "binds"},
      {"measurement": "binding result", "setting": "[1]; Ramos cells", "result": "binds"},
      {"measurement": "binding result", "setting": "[2]", "result": "binds more weakly"},
      {"measurement": "binding result", "setting": "[3]", "result": "binds more weakly"},
      {"measurement": "binding result", "setting": "[4]", "result": "binds more weakly"}
    ]}
  ]
}
